In publication PMC11101452, “Structures of the mumps virus polymerase complex via cryo-electron microscopy” (Nature Communications, 2024):
No constants are given. Whether binding was seen depends on the method and setting. Some entries that bind do so weakly or less than the wild type.

By UniProt entry, the sequences of proteins in these tests, tags left out.
UniProt C0JJA4: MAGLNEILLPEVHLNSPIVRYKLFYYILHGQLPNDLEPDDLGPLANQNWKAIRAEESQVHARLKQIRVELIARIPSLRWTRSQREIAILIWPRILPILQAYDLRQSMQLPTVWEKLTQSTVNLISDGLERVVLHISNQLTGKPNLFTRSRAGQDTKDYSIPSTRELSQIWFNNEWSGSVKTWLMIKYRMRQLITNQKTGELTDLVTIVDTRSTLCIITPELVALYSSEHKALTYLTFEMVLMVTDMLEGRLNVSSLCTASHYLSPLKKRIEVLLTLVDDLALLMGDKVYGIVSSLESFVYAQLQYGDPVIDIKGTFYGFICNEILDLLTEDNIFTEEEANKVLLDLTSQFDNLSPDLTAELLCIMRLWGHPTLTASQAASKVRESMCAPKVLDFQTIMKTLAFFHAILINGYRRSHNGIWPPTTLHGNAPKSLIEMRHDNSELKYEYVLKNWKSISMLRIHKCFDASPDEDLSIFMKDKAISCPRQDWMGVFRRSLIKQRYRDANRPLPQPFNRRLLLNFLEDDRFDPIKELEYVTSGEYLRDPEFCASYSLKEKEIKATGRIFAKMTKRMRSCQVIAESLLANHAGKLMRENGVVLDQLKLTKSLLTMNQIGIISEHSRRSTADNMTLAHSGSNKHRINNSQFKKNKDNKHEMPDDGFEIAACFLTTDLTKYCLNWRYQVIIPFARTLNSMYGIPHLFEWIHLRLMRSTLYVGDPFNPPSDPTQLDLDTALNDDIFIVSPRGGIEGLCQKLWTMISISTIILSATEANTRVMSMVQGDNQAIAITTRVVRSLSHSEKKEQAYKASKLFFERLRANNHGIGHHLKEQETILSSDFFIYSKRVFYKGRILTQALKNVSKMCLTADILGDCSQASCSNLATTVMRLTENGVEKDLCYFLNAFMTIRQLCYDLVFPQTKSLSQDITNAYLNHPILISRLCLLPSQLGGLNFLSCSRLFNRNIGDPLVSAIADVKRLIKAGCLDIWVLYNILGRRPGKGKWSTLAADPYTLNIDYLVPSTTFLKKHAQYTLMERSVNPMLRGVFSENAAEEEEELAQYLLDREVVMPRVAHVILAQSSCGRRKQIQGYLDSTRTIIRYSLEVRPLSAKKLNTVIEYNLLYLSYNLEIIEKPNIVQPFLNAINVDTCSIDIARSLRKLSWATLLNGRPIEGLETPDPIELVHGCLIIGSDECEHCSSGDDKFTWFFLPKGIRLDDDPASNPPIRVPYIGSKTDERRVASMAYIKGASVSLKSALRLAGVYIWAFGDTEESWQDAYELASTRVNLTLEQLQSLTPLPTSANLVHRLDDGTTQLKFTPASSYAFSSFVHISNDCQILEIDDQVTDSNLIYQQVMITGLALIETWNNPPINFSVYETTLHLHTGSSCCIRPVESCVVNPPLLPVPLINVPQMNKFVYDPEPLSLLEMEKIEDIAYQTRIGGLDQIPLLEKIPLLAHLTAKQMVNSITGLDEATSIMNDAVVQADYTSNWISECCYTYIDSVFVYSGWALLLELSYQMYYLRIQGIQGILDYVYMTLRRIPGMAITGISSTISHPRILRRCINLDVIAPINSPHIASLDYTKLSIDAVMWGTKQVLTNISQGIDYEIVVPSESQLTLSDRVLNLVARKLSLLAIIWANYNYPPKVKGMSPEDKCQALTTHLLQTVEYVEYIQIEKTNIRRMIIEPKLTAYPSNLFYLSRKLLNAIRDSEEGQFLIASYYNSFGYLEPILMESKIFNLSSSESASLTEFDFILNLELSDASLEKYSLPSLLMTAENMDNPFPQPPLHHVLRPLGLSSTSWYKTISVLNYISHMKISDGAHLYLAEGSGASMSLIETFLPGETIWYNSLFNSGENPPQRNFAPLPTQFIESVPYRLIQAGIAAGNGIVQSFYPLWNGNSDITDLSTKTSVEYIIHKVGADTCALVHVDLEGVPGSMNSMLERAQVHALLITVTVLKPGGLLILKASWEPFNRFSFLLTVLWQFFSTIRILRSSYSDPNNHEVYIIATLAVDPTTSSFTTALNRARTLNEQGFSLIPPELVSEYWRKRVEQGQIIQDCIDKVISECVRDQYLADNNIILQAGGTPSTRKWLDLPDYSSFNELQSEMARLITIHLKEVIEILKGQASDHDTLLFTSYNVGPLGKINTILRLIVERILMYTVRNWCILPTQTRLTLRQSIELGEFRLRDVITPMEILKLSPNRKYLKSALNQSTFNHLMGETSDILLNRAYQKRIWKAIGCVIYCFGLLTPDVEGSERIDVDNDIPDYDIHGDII

Biological target: mumps virus (strain Jeryl-Lynn) large protein (L) (mumps virus (strain Jeryl-Lynn)) (UniProt C0JJA4)
Assay: cryo-EM structure; L–P complex co-expressed in Sf9 and co-purified by the Strep tag of L; 2.0 μM; annealed and unannealed samples combined; 150 mM NaCl, 20 mM Tris-HCl, 6 mM MgCl2, 1 mM TCEP, pH 8.0; two conformations (L_(integral)–P, L_(body)–P); both purified

B1: mumps virus (strain Jeryl-Lynn) phosphoprotein (P) (natural protein)
chain: MDQFIKQDETGDLIETGMNVANHFLSTPIQGTNSLSKASILPGVAPVLIGNPEQKNIQHPTASHQGSKTKGRGSGVRSIIVSPSEAGNGGTQIPEPLFAQTGQGGIVTTVYQDPTIQPTGSYRSVELAKIGKERMINRFVEKPRTSTPVTEFKRGGPGAAAQGQTIQEEGIDGNGASAGSKERSGSLSGATLYAHLSLPQQDSTPANVGIAPQSAISANEIMDLLRGMDARLQHLEQKVDKVLAQGSMVTQIKNELSTVKTTLATIEGMMATVKIMDPGNPTGVPVDELRRSFSDHVTIVSGPGDVSFSSSEKPTLYLDELARPVSKPRPAKQTKSQPVKDLAGQKVMITKMITDCVANPQMKQAFEQRLAKASTEDALNDIKRDIIRSAI
notes: Phosphoprotein (P) of mumps virus strain Jeryl-Lynn, GenBank AAF70389.1; domains NTD, OD, Linker2, CTD (with XD); Four P molecules (P1-P4) stand in the L–P complex; only POD, Linker2 and part of PCTD are resolved; also called MuV P; P1; not shown: Flag, C-terminal, kept
For B1, the binding was “binds”.
